Source: PMC11933671
Results are given in words; binding and its absence hold for the method and conditions named. Binding seen in cells or lysates may run through a third protein. Here binding means that the protein was enriched with, or labelled near, the bait; the list need not be complete.

Target: SRPK1-GFP (serine/arginine-rich protein kinase with C-terminal GFP) (P. berghei)
Assay: affinity purification with mass spectrometry; GFP-Trap_A beads on lysates of male gametocytes 6 min post-activation, cross-linked with 1% formaldehyde before lysis; lysis buffer 10 mM Tris-HCl pH 7.5, 150 mM NaCl, 0.5 mM EDTA, 0.5% Nonidet P-40 Substitute; 2 h at 4°C; on-bead trypsin digest, LC-MS/MS; three biological replicates; hits absent from the WT-GFP control

B1: Calcium-dependent kinase 4 (enzyme, UniProt P62345 1-528)
chain: MGQEMSTQSDMQNENQKGNKRNLKGSQGKNGLKERSTSISKEIVKNSFNNSKLRPGMFIQNSNVVFNEQYKGIKILGKGSFGEVILSKDKHTGHEYAIKVISKKHVKRKTDKQSLLREVELLKMLDHINIMKLYEFFEDNNYYYLVSDVYSGGELFDEIISRKRFYEVDAARIIKQVLSGITYMHKNNVVHRDLKPENILLETKNKEDMIIKIIDFGLSTHFEYSKKMKDKIGTAYYIAPDVLHGTYDEKCDIWSCGVILYILLSGCPPFNGSNEYDILKKVETGKYTFDLPQFKKISDKAKDLIKKMLMYTSAVRISARDALEHEWIRLMTSKDNVNIDIPSLELSITNIKQFQSTQKLAQAALLYMGSKLTTIDETKELTKIFKKMDKNGDGQLDRNELIIGYKELLKLKGDDTTDLDNAAIEVEVDQILSSIDLDQNGYIEYSEFLTVAIDRKLLLSTERLEKAFKLFDKDGSGKISANELAQLFGLGDVSSDCWKTVLKEVDQNNDGEIDFKEFRDMLIKLCNY
**Q.** For B1, which binding is on record?
**A.** binds
